Results are given in words; binding and its absence hold for the method and conditions named. In cells and extracts the contact can be indirect. A result given as binding can be weak or reduced; the word gives no strength.
Key:
[1] = molecular target: GST-labeled NCoR (nuclear receptor co-repressor 1); assay: pull-down; GST-labeled coregulators immobilized on sepharose beads; 35S-PPARα from reticulocyte lysate; vehicle (no ligand); SDS-PAGE and phosphoimager quantification; only the target purified
[2] = molecular target: GST-labeled p300 (E1A binding protein p300); assay: pull-down; GST-labeled coregulators immobilized on sepharose beads; 35S-PPARα from reticulocyte lysate; with 100 μM Wy14643; SDS-PAGE and phosphoimager quantification; only the target purified
[3] = molecular target: GST-labeled NCoR (nuclear receptor co-repressor 1); assay: pull-down; GST-labeled coregulators immobilized on sepharose beads; 35S-PPARα from reticulocyte lysate; with 1,000 μM MEHP; SDS-PAGE and phosphoimager quantification; only the target purified
[4] = molecular target: GST-labeled p300 (E1A binding protein p300); assay: as above

Measured: binding

B1: mouse PPARα (peroxisome proliferator-activated receptor α) (protein, UniProt P23204 1-468)
chain: MVDTESPICPLSPLEADDLESPLSEEFLQEMGNIQEISQSIGEESSGSFGFADYQYLGSCPGSEGSVITDTLSPASSPSSVSCPVIPASTDESPGSALNIECRICGDKASGYHYGVHACEGCKGFFRRTIRLKLVYDKCDRSCKIQKKNRNKCQYCRFHKCLSVGMSHNAIRFGRMPRSEKAKLKAEILTCEHDLKDSETADLKSLGKRIHEAYLKNFNMNKVKARVILAGKTSNNPPFVIHDMETLCMAEKTLVAKMVANGVEDKEAEVRFFHCCQCMSVETVTELTEFAKAIPGFANLDLNDQVTLLKYGVYEAIFTMLSSLMNKDGMLIAYGNGFITREFLKNLRKPFCDIMEPKFDFAMKFNALELDDSDISLFVAAIICCGDRPGLLNIGYIEKLQEGIVHVLKLHLQSNHPDDTFLFPKLLQKMVDLRQLVTEHAQLVQVIKKTESDAALHPLLQEIYRDMY
modifications: 35S-labeled
binds: [1] | [2] | [3]

B2: human PPARα (peroxisome proliferator-activated receptor α) (protein, UniProt Q07869 1-468)
chain: MVDTESPLCPLSPLEAGDLESPLSEEFLQEMGNIQEISQSIGEDSSGSFGFTEYQYLGSCPGSDGSVITDTLSPASSPSSVTYPVVPGSVDESPSGALNIECRICGDKASGYHYGVHACEGCKGFFRRTIRLKLVYDKCDRSCKIQKKNRNKCQYCRFHKCLSVGMSHNAIRFGRMPRSEKAKLKAEILTCEHDIEDSETADLKSLAKRIYEAYLKNFNMNKVKARVILSGKASNNPPFVIHDMETLCMAEKTLVAKLVANGIQNKEAEVRIFHCCQCTSVETVTELTEFAKAIPGFANLDLNDQVTLLKYGVYEAIFAMLSSVMNKDGMLVAYGNGFITREFLKSLRKPFCDIMEPKFDFAMKFNALELDDSDISLFVAAIICCGDRPGLLNVGHIEKMQEGIVHVLRLHLQSNHPDDIFLFPKLLQKMADLRQLVTEHAQLVQIIKKTESDAALHPLLQEIYRDMY
modifications: 35S-labeled
binds: all assays above
